Experimental findings from patent publication US20240390531A1 (IMAGINAB, published 2024) are described below.

By UniProt entry, the sequences of proteins in these tests, tags left out.
UniProt Q12884: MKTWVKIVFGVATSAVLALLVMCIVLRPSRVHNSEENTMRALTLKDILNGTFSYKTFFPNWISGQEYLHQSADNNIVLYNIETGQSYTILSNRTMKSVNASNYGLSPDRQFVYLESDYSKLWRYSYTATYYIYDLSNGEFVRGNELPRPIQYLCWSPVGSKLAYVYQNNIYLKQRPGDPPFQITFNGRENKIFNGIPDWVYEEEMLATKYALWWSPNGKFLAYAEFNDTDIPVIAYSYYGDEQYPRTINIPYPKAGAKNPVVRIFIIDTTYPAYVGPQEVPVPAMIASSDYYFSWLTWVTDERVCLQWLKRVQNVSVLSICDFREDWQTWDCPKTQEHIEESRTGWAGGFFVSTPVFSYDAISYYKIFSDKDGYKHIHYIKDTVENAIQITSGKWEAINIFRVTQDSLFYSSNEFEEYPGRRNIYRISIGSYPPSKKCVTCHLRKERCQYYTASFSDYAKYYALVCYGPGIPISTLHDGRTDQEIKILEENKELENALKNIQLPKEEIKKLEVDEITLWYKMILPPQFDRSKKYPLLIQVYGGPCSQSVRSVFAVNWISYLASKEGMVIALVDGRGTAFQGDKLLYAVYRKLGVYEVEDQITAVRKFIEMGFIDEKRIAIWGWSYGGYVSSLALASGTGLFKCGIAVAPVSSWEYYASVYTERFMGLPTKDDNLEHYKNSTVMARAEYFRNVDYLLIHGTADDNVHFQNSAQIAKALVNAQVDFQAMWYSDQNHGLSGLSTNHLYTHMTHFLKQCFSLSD

No constants are given. Whether binding was seen depends on the method and setting. Some entries that bind do so weakly or less than the wild type.

The target of this test is T1, human FAP on cells (human, UniProt Q12884 1-760).
T1 construct: whole, on cells; The cell line is named under assay; also called HT1080 human FAP cells; HT1080-hFAP cells
In words: flow cytometry on HT1080-human FAP cells (FIG. 93). (In general: In flow cytometry, cells or beads pass a laser one at a time.)

B1: 9A5 (protein)
chain: QVQLKESGPGLVAPSQSLSITCTVSGFSLTNYDINWIRQPPGKGLEWLGLIWTGGGTNYNSAFMSRLSISKDNSKSQVFLKMNSLQTDDTAIYYCVRGGPLVWYALDYWGQGTSVTVSSDIVMTQSHKFMSTSVGDRVSITCKASQDVSTAVAWYQQKPGQSPKLLIYSASYRYTGVPDRFTGSGSGTDFTFTISSVQAEDLAVYYCQQHYSNPRTFGGGTKLEIK
In the case of B1, the binding entry was “binds”.
